Experimental data from patent US5770176.
The exact form of at least one protein or probe is not confirmed. Where cells or extracts were used, other partners may take part.

Chains of the proteins cited; added tags and fusions are not shown.
UniProt P03372, whole entry: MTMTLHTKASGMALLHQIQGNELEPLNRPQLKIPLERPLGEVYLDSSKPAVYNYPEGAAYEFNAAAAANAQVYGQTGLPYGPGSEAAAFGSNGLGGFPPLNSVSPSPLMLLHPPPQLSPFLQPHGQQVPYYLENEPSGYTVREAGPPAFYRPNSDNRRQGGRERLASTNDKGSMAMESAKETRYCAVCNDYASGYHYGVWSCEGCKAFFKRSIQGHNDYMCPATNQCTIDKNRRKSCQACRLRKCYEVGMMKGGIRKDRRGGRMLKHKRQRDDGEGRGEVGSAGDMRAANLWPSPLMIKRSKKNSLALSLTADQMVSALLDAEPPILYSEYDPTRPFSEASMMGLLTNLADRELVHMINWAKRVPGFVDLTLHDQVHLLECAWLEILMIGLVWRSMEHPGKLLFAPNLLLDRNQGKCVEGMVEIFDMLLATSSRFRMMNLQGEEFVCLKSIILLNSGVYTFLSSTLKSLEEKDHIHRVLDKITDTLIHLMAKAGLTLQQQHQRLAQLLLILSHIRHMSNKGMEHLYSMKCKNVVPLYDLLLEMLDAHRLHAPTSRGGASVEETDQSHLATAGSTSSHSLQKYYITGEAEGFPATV
UniProt P49884, whole entry: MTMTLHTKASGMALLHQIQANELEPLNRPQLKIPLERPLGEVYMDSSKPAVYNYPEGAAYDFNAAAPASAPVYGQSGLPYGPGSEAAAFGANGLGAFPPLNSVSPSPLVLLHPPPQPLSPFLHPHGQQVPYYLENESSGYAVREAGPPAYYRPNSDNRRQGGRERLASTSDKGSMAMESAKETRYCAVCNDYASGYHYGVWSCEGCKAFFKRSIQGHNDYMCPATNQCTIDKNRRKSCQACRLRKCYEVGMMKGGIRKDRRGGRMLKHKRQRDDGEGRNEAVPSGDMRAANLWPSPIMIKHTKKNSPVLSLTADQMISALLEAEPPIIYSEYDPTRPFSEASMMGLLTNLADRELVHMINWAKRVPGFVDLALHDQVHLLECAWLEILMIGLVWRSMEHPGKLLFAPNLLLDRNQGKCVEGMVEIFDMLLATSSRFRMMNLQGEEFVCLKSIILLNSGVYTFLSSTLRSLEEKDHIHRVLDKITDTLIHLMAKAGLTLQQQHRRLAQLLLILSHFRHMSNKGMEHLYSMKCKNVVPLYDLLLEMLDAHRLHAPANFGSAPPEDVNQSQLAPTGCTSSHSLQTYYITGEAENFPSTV

Legend:
Assay in all cases: ELONA
[1] = biological target: Estrogen receptor (ER) (Homo sapiens) (UniProt P03372); conditions: 23 breast cancer cytosols; all Abbott ER-positive samples above 0.5 absorbance cut-off; MAb capture, estradiol, 37 C; protein in an extract; protein details: breast cancer cytosols; label: biotin (random or 5'-phosphate end)
[2] = biological target: Estrogen receptor (ER) (Bos taurus) (UniProt P49884); conditions: two calf uteri samples; MAb capture, estradiol, 37 C; protein in an extract; protein details: calf uteri (Animal Technologies) cytosol; label: biotin (random or 5'-phosphate end)
[3] = tested on: Estrogen receptor (ER), ER-positive control; conditions: sandwich with ER MAb-coated wells; estradiol; 50 mM Tris pH 7.4, 1% BSA, 1 mM EDTA, 0.1 M KCl, 10% glycerol; 37 C; ER-negative controls negative; protein in an extract; protein details: ER-positive controls from DSL and Du Pont; label: biotin (random or 5'-phosphate end)

Measured: binding result

CCAGGTCAGAGTGACCTGAGCTAAAATAACACATTCAGCCAGGTCAGAGTGACCTGAGCTAAAATAACACATTCAGCCAGGTCAGAGTGACCTGAGCTAAAATAACACATTCAGCCAGGTCAGAGTGACCTGAGCTAAAATAACACATTCAGCCAGGTCAGAGTGACCTGAGCTAAAATAACACATTCAGCCAGGTCAGAGTGACCTGAGCTAAAATAACACATTCAGCCAGGTCAGAGTGACCTGAGCTAAAATAACACATTCAGCCAGGTCAGAGTGACCTGAGCTAAAATAACACATTCAG (double strand) [ERE octamer (8 tandem copies of 38 bp consensus ERE)]
binds: [1] | [2] | [3]
